Data taken from patent publication US7465585.
No constants are given. Whether binding was seen depends on the method and setting. Some entries that bind do so weakly or less than the wild type. Sequences can lack the tags named with a protein.

T1: individual CRD-C domain of hDkk1 with point mutation D194A, IgG-fused (human) (UniProt O94907)
T1 sequence: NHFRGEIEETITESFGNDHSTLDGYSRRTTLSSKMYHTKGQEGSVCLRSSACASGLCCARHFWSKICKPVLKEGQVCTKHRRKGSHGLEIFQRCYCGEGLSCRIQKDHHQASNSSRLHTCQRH

T2: N1-AP fusion protein (CRD-N of hDkk1 fused with alkaline phosphatase) (human) (UniProt O94907)
T2 sequence: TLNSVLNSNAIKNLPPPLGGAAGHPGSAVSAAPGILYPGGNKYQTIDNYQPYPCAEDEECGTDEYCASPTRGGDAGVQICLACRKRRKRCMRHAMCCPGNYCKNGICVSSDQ

T3: extracellular domain of Kremen1, IgG-fused (Xenopus) (UniProt Q90Y90)
T3 sequence: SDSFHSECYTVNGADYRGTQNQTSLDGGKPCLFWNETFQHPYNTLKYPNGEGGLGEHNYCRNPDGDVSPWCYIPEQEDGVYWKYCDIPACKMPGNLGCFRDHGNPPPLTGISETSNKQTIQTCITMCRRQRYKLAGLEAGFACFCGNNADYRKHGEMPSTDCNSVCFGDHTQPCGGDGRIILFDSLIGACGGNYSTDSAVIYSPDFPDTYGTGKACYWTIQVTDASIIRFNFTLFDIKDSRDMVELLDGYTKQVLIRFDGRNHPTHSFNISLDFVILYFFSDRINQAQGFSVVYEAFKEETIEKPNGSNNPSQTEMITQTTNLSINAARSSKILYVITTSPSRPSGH


How the values were obtained:
[1] = target: T1, individual CRD-C domain of hDkk1 with point mutation D194A, IgG-fused (human); test: AP-tagged CRD-N and IgG-fused CRD-C, bead binding (FIG. 7 legend)
[2] = target: T1, individual CRD-C domain of hDkk1 with point mutation D194A, IgG-fused (human); test: AP-tagged Dkk1 mutant domain and IgG-fused CRD-C, bead binding, AP activity
[3] = target: T2, N1-AP fusion protein (CRD-N of hDkk1 fused with alkaline phosphatase) (human); test: direct binding in vitro (resin-binding assay)
[4] = target: T2, N1-AP fusion protein (CRD-N of hDkk1 fused with alkaline phosphatase) (human); test: enzyme-linked resin-binding assay, IgG fusion on GammaBind Plus sepharose, AP activity at 405 nm
[5] = target: T3, extracellular domain of Kremen1, IgG-fused (Xenopus); test: AP-tagged Dkk1 mutant and IgG-fused receptor, bead binding, AP activity
[6] = target: T3, extracellular domain of Kremen1, IgG-fused (Xenopus); test: AP-tagged Dkk1 mutant and IgG-fused receptor, bead binding (FIG. 7 legend)

binding [5] | binding [6] | Binder | also measured
 |  | individual CRD-N domain of hDkk1 with point mutation H124D, AP-tagged (protein, not shown: large carriers) TLNSVLNSNAIKNLPPPLGGAAGHPGSAVSAAPGILYPGGNKYQTIDNYQPYPCAEDEECGTDEYCASPTRGGDAGVQICLACRKRRKRCMRDAMCCPGNYCKNGICVSSDQ | binding [1]: binds; binding [2]: binds
 |  | C1 fused to the constant region of human IgG1 (C1-IgG) (Fc fusion, not shown: a dimerising Fc or GST) NHFRGEIEETITESFGNDHSTLDGYSRRTTLSSKMYHTKGQEGSVCLRSSDCASGLCCARHFWSKICKPVLKEGQVCTKHRRKGSHGLEIFQRCYCGEGLSCRIQKDHHQASNSSRLHTCQRH | binding [3]: binds; binding [4]: binds
binds | binds | hDkk1-H124D, AP-tagged (protein, not shown: large carriers) TLNSVLNSNAIKNLPPPLGGAAGHPGSAVSAAPGILYPGGNKYQTIDNYQPYPCAEDEECGTDEYCASPTRGGDAGVQICLACRKRRKRCMRDAMCCPGNYCKNGICVSSDQNHFRGEIEETITESFGNDHSTLDGYSRRTTLSSKMYHTKGQEGSVCLRSSDCASGLCCARHFWSKICKPVLKEGQVCTKHRRKGSHGLEIFQRCYCGEGLSCRIQKDHHQASNSSRLHTCQRH | 
binds | binds | hDkk1-H124D/D194A double mutant, AP-tagged (protein, not shown: large carriers) TLNSVLNSNAIKNLPPPLGGAAGHPGSAVSAAPGILYPGGNKYQTIDNYQPYPCAEDEECGTDEYCASPTRGGDAGVQICLACRKRRKRCMRDAMCCPGNYCKNGICVSSDQNHFRGEIEETITESFGNDHSTLDGYSRRTTLSSKMYHTKGQEGSVCLRSSACASGLCCARHFWSKICKPVLKEGQVCTKHRRKGSHGLEIFQRCYCGEGLSCRIQKDHHQASNSSRLHTCQRH | 
binds | binds | hDkk1-D194A, AP-tagged (protein, not shown: large carriers) TLNSVLNSNAIKNLPPPLGGAAGHPGSAVSAAPGILYPGGNKYQTIDNYQPYPCAEDEECGTDEYCASPTRGGDAGVQICLACRKRRKRCMRHAMCCPGNYCKNGICVSSDQNHFRGEIEETITESFGNDHSTLDGYSRRTTLSSKMYHTKGQEGSVCLRSSACASGLCCARHFWSKICKPVLKEGQVCTKHRRKGSHGLEIFQRCYCGEGLSCRIQKDHHQASNSSRLHTCQRH | 
